This is an account of results in article doi:10.1101/2024.08.06.606759.

These are yes or no findings as the source states them, for the method shown. In cells and extracts the contact can be indirect. Where a sequence is shown, tags or fusion partners need not be part of it.

In the assay the target is T1, RIPK4-WT-FLAG (UniProt P57078).
T1 sequence: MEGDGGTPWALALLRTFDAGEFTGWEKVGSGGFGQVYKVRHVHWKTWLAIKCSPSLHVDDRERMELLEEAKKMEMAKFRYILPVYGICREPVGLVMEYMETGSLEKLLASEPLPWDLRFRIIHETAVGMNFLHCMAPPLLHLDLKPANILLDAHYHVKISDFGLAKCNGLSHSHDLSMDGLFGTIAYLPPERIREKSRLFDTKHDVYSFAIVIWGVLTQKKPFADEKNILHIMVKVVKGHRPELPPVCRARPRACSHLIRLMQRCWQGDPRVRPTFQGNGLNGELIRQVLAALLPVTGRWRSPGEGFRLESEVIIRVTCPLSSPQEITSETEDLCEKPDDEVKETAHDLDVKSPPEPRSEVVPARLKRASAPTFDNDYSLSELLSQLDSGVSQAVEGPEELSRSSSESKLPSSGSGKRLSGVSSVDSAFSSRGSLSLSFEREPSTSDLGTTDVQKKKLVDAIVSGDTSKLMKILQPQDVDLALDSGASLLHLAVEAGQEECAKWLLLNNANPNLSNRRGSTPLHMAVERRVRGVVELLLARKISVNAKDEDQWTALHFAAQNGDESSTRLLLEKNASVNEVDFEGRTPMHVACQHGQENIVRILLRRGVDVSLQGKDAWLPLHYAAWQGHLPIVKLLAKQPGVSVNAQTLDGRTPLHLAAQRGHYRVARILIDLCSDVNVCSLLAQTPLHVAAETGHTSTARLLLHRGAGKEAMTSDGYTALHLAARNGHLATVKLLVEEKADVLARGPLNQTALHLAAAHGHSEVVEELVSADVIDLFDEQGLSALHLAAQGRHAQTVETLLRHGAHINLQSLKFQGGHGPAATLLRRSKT
The experiment in a line: co-IP.

For MTHFD1-Δ4-HA (domain or fragment), the binding result is recorded as “no binding”.
